According to article PMC9032790:

Experiments:
1F7-RAb [1] = experiment: 1F7-RAb-based GICA, selectivity and sensitivity in standard solution; format: binding, mouse; conditions: clothianidin standard solution
1F7-RAb [2] = experiment: 1F7-RAb-based GICA in spiked environmental and agricultural samples; set-up: species or system mouse

CN/C(=N\[N+](=O)[O-])NCc1cnc(Cl)s1 [clothianidin]
concentration at which the T line was invisible (1F7-RAb [1]): more than 10 μg/L | visual detection limit (LOD) by GICA (1F7-RAb [1]; naked eye after 10 min): 2.5 µg/L | visual LOD by GICA (1F7-RAb [2]; oranges): ~15 ng/g | visual LOD by GICA (1F7-RAb [2]; river water): about 5 ng/mL | visual LOD by GICA (1F7-RAb [2]; soil): ~10 ng/g | visual LOD by GICA (1F7-RAb [2]; tomatoes): ~15 ng/g
